Measured values from paper PMC3248445.
These are yes or no findings as the source states them, for the method shown. A result given as binding can be weak or reduced; the word gives no strength.

Key:
Assay in all cases: two-hybrid; Matchmaker GAL4 two-hybrid system 3, pGADT7- and pGBKT7-derived vectors in PJ69 4a and PJ69 4alpha yeast, mated; growth on medium lacking Leu, Trp, His (low stringency) and lacking Leu, Trp, His, Ade (high stringency); three independent experiments, each in duplicate
[1] = molecular target: VPg from PVY-LYE90 (Potato virus Y, strain LYE90)
[2] = molecular target: VPg from PepMoV (Pepper mottle virus)
[3] = molecular target: VPg from TEV-HAT (Tobacco etch virus, strain HAT)
[4] = molecular target: VPg from PVY-LYE84 (Potato virus Y, strain LYE84)

Measured: binding

B1: eIF4E1 from tomato (Solanum lycopersicum cv. M82) (protein, UniProt Q4VQY3 1-231)
chain: MAAAEMERTMSFDAAEKLKAADGGGGEVDDELEEGEIVEESNDTASYLGKEITVKHPLEHSWTFWFDNPTTKSRQTAWGSSLRNVYTFSTVEDFWGAYNNIHHPSKLIMGADFHCFKHKIEPKWEDPVCANGGTWKMSFSKGKSDTSWLYTLLAMIGHQFDHGDEICGAVVSVRAKGEKIALWTKNAANETAQVSIGKQWKQFLDYSDSVGFIFHDDAKRLDRNAKNRYTV
binds: [1] | [2] | [3] | [4]
